Results taken from article PMC6824681, “Phosphoproteomics reveals that the hVPS34 regulated SGK3 kinase specifically phosphorylates endosomal proteins including Syntaxin-7, Syntaxin-12, RFIP4 and WDR44” (Biochemical Journal, 2019).
These are yes or no findings as the source states them, for the method shown. In cells and extracts the contact can be indirect. Some entries that bind do so weakly or less than the wild type. Sequences can lack the tags named with a protein.

T1: GFP-STX12 S139A (human) (UniProt Q86Y82)
T1 sequence: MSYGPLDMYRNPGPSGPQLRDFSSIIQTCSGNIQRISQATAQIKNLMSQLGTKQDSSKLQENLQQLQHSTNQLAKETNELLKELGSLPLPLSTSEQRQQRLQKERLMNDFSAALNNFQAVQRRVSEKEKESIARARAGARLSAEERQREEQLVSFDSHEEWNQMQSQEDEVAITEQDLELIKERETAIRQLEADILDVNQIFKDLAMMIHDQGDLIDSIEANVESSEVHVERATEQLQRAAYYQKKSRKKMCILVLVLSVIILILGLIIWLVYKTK

T2: GFP-STX12 wild type (Syntaxin-12) (human, UniProt Q86Y82 1-276)
T2 construct: Syntaxin-12 (STX12), human; After IGF1 stimulation about 20% of the stably expressed protein was phosphorylated (Ser139) by phos-tag analysis; also called GFP-STX12 WT; wild-type STX12
T2 sequence (looked up): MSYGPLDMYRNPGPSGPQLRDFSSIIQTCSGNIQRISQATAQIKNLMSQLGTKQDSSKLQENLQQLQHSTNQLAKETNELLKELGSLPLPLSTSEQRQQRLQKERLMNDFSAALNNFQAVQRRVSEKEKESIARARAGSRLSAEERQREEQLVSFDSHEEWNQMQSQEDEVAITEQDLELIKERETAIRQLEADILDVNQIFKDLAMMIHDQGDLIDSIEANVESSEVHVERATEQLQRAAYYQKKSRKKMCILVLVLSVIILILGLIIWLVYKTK


Key:
GFP-STX12 S139A (human) = biological target: T1, GFP-STX12 S139A (human); assay: co-IP; GFP-STX12 WT or S139A immunoprecipitated from 2 mg lysate with GFP-Trap beads, 4°C, 4 h; two washes with lysis buffer with 0.45 M NaCl, one with 0.15 M NaCl; immunoblot of endogenous partners; cells serum-starved overnight, ± 14H (1 µM, 1 h), ± IGF1 (50 ng/ml, 15 min)
[1] = biological target: T2, GFP-STX12 wild type (Syntaxin-12); assay: as above

binding (GFP-STX12 S139A (human))	binding [1]	Binder
binds	binds	VTI1A (natural protein, human (endogenous in HEK293), UniProt Q96AJ9 1-217, looked up, Vti1a (VTI1A), endogenous in HEK293 cells, detected by immunoblot with anti-VTI1A; source: endogenous, HEK293 lysate) MSSDFEGYEQDFAVLTAEITSKIARVPRLPPDEKKQMVANVEKQLEEAKELLEQMDLEVREIPPQSRGMYSNRMRSYKQEMGKLETDFKRSRIAYSDEVRNELLGDDGNSSENQRAHLLDNTERLERSSRRLEAGYQIAVETEQIGQEMLENLSHDREKIQRARERLRETDANLGKSSRILTGMLRRIIQNRILLVILGIIVVITILMAITFSVRRH
binds	binds	VAMP4 (natural protein, human (endogenous in HEK293), UniProt O75379 1-141, looked up, VAMP4, endogenous in HEK293 cells, detected by immunoblot with anti-VAMP4; also called v-SNARE protein VAMP4; source: endogenous, HEK293 lysate) MPPKFKRHLNDDDVTGSVKSERRNLLEDDSDEEEDFFLRGPSGPRFGPRNDKIKHVQNQVDEVIDVMQENITKVIERGERLDELQDKSESLSDNATAFSNRSKQLRRQMWWRGCKIKAIMALVAAILLLVIIILIVMKYRT
binds	binds	Syntaxin 6 (STX6) (natural protein, human (endogenous in HEK293), UniProt O43752 1-255, looked up, Syntaxin-6 (STX6), endogenous in HEK293 cells, detected by immunoblot with anti-STX6; source: endogenous, HEK293 lysate) MSMEDPFFVVKGEVQKAVNTAQGLFQRWTELLQDPSTATREEIDWTTNELRNNLRSIEWDLEDLDETISIVEANPRKFNLDATELSIRKAFITSTRQVVRDMKDQMSTSSVQALAERKNRQALLGDSGSQNWSTGTTDKYGRLDRELQRANSHFIEEQQAQQQLIVEQQDEQLELVSGSIGVLKNMSQRIGGELEEQAVMLEDFSHELESTQSRLDNVMKKLAKVSHMTSDRRQWCAIAILFAVLLVVLILFLVL
